Several values for one entry are separate records, joined by “and”; a condition that tells them apart may be missing. Equal values may be shown once. Where a name gives a salt, the structure may show the parent alone. The list shows a part of the results. Repeats in this data set agree poorly, so a single value says little.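 HEK293T cells were given each compound shortly before transfection with a reporter in which red mCherry is followed by the SARS-CoV-2 frameshift element and then GFP in the −1 frame, so GFP appears only after frameshifting.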
tested on: SARS-CoV-2 -1 PRF reporter mCherry-FSE-GFP(-1); assay: mCherry (red) intensity as percent of control; higher = higher upstream reporter expression; details: 10 µM; 24 h; HEK293T

Row | Compound | mCherry
1 | CSc1nc2cc(Cl)c(Oc3cccc(Cl)c3Cl)cc2[nH]1 [triclabendazole] | 84.6%
2 | C[C@H]1c2cccc(O)c2C(O)=C2C(=O)[C@]3(O)C(O)=C(C(N)=O)C(=O)[C@@H](N(C)C)[C@@H]3[C@@H](O)[C@@H]21 [Doxycycline] | 64.5% and 71.6%
3 | CN1CCC(=C2c3ccccc3CCc3cccnc32)CC1 | 123%
4 | CN=C(N)NCCCC(N)C(=O)O (stereo not given) | 104%
5 | CCN(CC)CCNc1ccc(C)c2sc3ccccc3c(=O)c12 [lucanthone] | 53.6%
6 | CO[C@H]1C[C@H](O[C@@H]2/C(C)=C/C[C@@H]3C[C@@H](C[C@]4(CC[C@H](C)[C@@H](C5CCCCC5)O4)O3)OC(=O)[C@@H]3C=C(C)/C(=N/O)[C@H]4OC/C(=C\C=C\[C@@H]2C)[C@]43O)O[C@@H](C)[C@@H]1O | 117%
7 | NS(=O)(=O)c1ccc(NC(=O)OCCO)cc1 [sulocarbilate] | 102%
8 | O=c1[nH]cnc2c1ncn2[C@@H]1O[C@H](CO)[C@@H](O)[C@H]1O [inosine] | 131%
9 | c1ccc2c(SC3=NCCN3)c[nH]c2c1 [tinazoline] | 95%
10 | Nc1c(-c2cccc(C(F)(F)F)c2)nsc1C(=O)O [amflutizole] | 119%
11 | C[C@H](CS)C(=O)N1CCC[C@H]1C(=O)O [captopril] | 103% and 93.1%
12 | O=C(OCCOCCN1CCCCC1)N1c2ccccc2Sc2cccnc21 [pipazetate] | 65.3%
13 | CN(C)CCO/N=C(/C=C/c1ccc(O)cc1)c1ccccc1F [eplivanserin] | 106%
14 | C1CCN2C[C@@H]3C[C@@H](CN4CCCC[C@@H]34)[C@H]2C1 [(-)-Sparteine] | 97.7%
15 | CCCCOCCOC(=O)c1cccnc1 [nicoboxil] | 104%
16 | CCOc1ccc(Cc2nccc3cc(OCC)c(OCC)cc23)cc1OCC [ethaverine] | 79.1%
17 | CO[C@@]1(NC(=O)CSCC#N)C(=O)N2C(C(=O)O)=C(CSc3nnnn3C)CS[C@@H]21 [Zefazone] | 118%
18 | Cc1ccc2c(Br)cc(Br)c(OC(=O)c3ccccc3)c2n1 [broxaldine] | 127%
19 | CC(C)[N+](C)(CCOC(=O)C1c2ccccc2Oc2ccccc21)C(C)C [propantheline bromide] | 116%
20 | CC(=O)OC(C)C[N+](C)(C)C (stereo not given) [methacholine chloride] | 96%

Row | Compound | mCherry
21 | Nc1ccc(S(=O)(=O)Nc2cnc3ccccc3n2)cc1 | 109%
22 | Clc1ccc(C(Cn2ccnc2)OCc2csc3c(Cl)cccc23)c(Cl)c1 (stereo not given) [sertaconazole] | 94.1%
23 | CC(C)c1ccc2oc3nc(N)c(C(=O)O)cc3c(=O)c2c1 [amlexanox] | 117%
24 | O=c1oc2ccccc2c(O)c1Cc1c(O)c2ccccc2oc1=O | 107%
25 | O=C(O)[C@@H]1[C@H]2C[C@H]3c4[nH]c5ccccc5c4CCN3C[C@@H]2CC[C@@H]1O [yohimbic acid] | 85.2%
26 | NCCc1cnc[nH]1 | 118%
27 | CC[C@@H]1C(=O)OC[C@@H]1Cc1cncn1C [Pilocarpine·HCl] | 85.7%
28 | CC(C)(O/N=C(\C(=O)N[C@@H]1C(=O)N2C(C(=O)[O-])=C(C[n+]3ccccc3)CS[C@H]12)c1csc(N)n1)C(=O)O | 84.7%
29 | CCN(CC)CCOC1(c2ccc(Cl)cc2)CCCCC1 [clofenciclan] | 72.3%
30 | Cc1[nH]c2ccccc2c1C[C@@H](NC(=O)[C@@H](N)Cc1c[nH]cn1)C(=O)N[C@@H](C)C(=O)N[C@@H](Cc1c[nH]c2ccccc12)C(=O)N[C@H](Cc1ccccc1)C(=O)N[C@@H](CCCCN)C(N)=O [examorelin] | 121%
31 | CCN1CCC[C@H]1CNC(=O)c1c(O)c(Cl)cc(Cl)c1OC [S(-)-Raclopride] | 91.8%
32 | CCCc1cc(=O)[nH]c(=S)[nH]1 | 114%
33 | Nc1ncn([C@@H]2O[C@H](CO)[C@@H](O)[C@H]2O)c(=O)n1 [azacitidine] | 14.5%
34 | CNCCCC1c2ccccc2C=Cc2ccccc21 [protriptyline] | 115%
35 | CN1CC(=O)N2[C@H](c3ccc4c(c3)OCO4)c3[nH]c4ccccc4c3C[C@@H]2C1=O [tadalafil] | 129%
36 | COCCCC/C(=N\OCCN)c1ccc(C(F)(F)F)cc1 [fluvoxamine] | 118%
37 | Oc1ccc(Cl)cc1Sc1cc(Cl)ccc1O [fenticlor] | 107%
38 | CCc1[nH]c(=O)[nH]c1C(=O)c1ccncc1 [piroximone] | 104%
39 | COc1ccccc1N1CCN(CCCNc2cc(=O)n(C)c(=O)n2C)CC1 [urapidil] | 113%
40 | CNC[C@H](O)[C@@H](O)[C@H](O)[C@H](O)CO | 79.9%

Some of the entries so far, as labelled records:
CN1CCC(=C2c3ccccc3CCc3cccnc32)CC1
  mCherry: 123%
O=c1oc2ccccc2c(O)c1Cc1c(O)c2ccccc2oc1=O
  mCherry: 107%

Shown comma-delimited: two of the compounds above
Row,Compound,mCherry
22,Clc1ccc(C(Cn2ccnc2)OCc2csc3c(Cl)cccc23)c(Cl)c1 (stereo not given) [sertaconazole],94.1%
24,O=c1oc2ccccc2c(O)c1Cc1c(O)c2ccccc2oc1=O,107%

Reference: the supplement of paper PMC8256030
